Experimental findings from publication PMC7862700 are described below.

Only a part is listed here, and it is no random draw. At the low end of the ranking the order means little.

The first assay addresses T1, ELK1 (UniProt P19419).
T1 sequence: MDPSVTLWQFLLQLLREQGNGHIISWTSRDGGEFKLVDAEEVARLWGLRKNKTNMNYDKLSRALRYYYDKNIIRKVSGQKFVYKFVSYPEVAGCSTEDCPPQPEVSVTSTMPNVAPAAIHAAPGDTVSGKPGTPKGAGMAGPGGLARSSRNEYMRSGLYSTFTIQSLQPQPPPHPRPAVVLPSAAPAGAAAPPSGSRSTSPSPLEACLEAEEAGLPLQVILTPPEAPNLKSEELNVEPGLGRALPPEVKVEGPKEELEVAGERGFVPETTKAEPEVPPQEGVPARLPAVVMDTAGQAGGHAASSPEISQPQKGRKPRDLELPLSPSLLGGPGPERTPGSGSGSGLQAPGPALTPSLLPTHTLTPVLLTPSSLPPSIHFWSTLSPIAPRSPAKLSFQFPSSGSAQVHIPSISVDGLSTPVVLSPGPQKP
Put plainly: DAPPL (digital affinity profiling via proximity ligation, sequencing). Conditions: 10 mM Tris-HCl pH 7.5, 50 mM NaCl, 1 mM DTT, 4% glycerol, room temperature, 30 min; GST-TFs on glutathione beads, 16-mer random dsDNA library, 0.1% …; high values mean tight binding; double strand, one strand shown; scale: fold enrichment (6-mer frequency, TF over GST control).
The sequence CAATTA yielded a binding signal of 1.11.
With AAGGGT, the binding signal is 1.01.
With GATTCG, the binding signal was 0.974.
Regarding TGGACA, the binding signal was 1.07.
In turn, CTGTTG yielded a binding signal of 1.02.
As for GCTTAA, the binding signal worked out at 0.976.
The sequence CCCCTC yielded a binding signal of 1.29.
The same measure, in the same setting: the same measure for TCCGGT: 3.83.
On the same count and under the same terms, the same measure for CAACCC: 1.22.
On the same count and under the same terms, the result for AAGCTT reads 1.33; that for GATTTG, 1.16.

Another assay addresses T2, ELK3 (UniProt P41970).
T2 sequence: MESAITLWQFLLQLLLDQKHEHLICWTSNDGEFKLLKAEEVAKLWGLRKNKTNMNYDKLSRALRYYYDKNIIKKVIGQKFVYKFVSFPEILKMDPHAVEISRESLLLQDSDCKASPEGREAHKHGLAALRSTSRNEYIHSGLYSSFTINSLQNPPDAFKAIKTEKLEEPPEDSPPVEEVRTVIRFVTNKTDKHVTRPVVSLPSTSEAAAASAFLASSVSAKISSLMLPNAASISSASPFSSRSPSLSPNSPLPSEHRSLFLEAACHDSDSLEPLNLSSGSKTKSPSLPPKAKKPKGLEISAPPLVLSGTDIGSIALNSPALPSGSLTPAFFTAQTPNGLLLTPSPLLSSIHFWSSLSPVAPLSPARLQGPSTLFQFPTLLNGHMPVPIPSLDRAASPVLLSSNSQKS
The assay is described as above. Conditions: 10 mM Tris-HCl pH 7.5, 50 mM NaCl, 1 mM DTT, 4% glycerol, room temperature, 30 min; GST-TFs on glutathione beads, 16-mer random dsDNA library, 0.1% …; high values mean tight binding; double strand, one strand shown; scale: fold enrichment (6-mer frequency, TF over GST control).
Consider CAATTA, for which the binding signal is 1.05.
For AAGGGT, the binding signal came out at 0.952.
The same measure, in the same setting: the same measure for GATTCG: 0.728; for TGGACA: 1.07.
On the same count and under the same terms, the result for CTGTTG reads 0.998.
On the same count and under the same terms, the same measure for GCTTAA: 0.949; for CCCCTC: 1.37.
The sequence TCCGGT returned a binding signal of 4.4.
For the sequence CAACCC, the binding signal was determined as 1.21.
On the same count and under the same terms, the result for AAGCTT reads 1.31; that for GATTTG, 0.953.

A further assay concerns the target T3, ETS2 (UniProt P15036).
T3 sequence: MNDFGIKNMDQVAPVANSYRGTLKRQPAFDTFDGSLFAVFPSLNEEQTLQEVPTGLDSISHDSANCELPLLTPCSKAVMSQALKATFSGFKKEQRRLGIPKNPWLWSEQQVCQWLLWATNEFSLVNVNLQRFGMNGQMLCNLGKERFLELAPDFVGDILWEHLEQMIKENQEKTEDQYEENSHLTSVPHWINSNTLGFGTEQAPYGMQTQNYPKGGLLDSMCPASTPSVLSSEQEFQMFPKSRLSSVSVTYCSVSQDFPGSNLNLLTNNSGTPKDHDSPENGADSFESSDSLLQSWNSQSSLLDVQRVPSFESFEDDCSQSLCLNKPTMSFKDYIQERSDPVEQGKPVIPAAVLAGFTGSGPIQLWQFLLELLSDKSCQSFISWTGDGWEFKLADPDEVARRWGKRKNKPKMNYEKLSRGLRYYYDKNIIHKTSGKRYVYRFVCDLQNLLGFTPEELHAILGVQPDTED
Described as above. Conditions: 10 mM Tris-HCl pH 7.5, 50 mM NaCl, 1 mM DTT, 4% glycerol, room temperature, 30 min; GST-TFs on glutathione beads, 16-mer random dsDNA library, 0.1% …; high values mean tight binding; double strand, one strand shown; scale: fold enrichment (6-mer frequency, TF over GST control).
With AATTAT, the binding signal is 1.27.
The same measure, in the same setting: the result for CACATC reads 1.38; that for TCATCA, 1.15.
The same measure, in the same setting: the result for TAACCG reads 1.07; that for TACCGG, 1.6.
The sequence ATGCCC returned a binding signal of 1.29.
For the sequence CTTCCC, the binding signal came to 2.32.
On the same count and under the same terms, the result for AACTGG reads 1.3; that for AGCTAT, 1.11; that for CGCCTA, 1.19.
Still for that read-out and setting: the result for ACTGCC reads 1.29; that for CCTAAT, 1.33; that for CCCACT, 1.32.
On the same count and under the same terms, the same measure for CGCGCT: 1.25.
Take AACCTA: the binding signal stood at 1.11.
Turning to TGTATG, the binding signal turned out to be 1.26.
On to CAATGT, for which the binding signal was 0.975.
In turn, CGACTG registered a binding signal of 1.08.
Still for that read-out and setting: the same measure for TTATAT: 1.39; for TGAATG: 1.25; for TCCGCC: 1.54.
In turn, CCTTCA returned a binding signal of 1.38.
Same read-out and setting: the result for ATCCAT reads 1.17; that for AGGTTT, 1.01; that for ACGCGC, 0.937.
In turn, AAGTAT returned a binding signal of 1.46.
Turning to ACCTTG, the binding signal was 1.27.
The same measure, in the same setting: the same measure for CCCGGC: 1.16.
